For data set [1], the target named is T1, Leukotriene A-4 hydrolase (Mus musculus) (UniProt P24527).
T1 sequence (whole entry): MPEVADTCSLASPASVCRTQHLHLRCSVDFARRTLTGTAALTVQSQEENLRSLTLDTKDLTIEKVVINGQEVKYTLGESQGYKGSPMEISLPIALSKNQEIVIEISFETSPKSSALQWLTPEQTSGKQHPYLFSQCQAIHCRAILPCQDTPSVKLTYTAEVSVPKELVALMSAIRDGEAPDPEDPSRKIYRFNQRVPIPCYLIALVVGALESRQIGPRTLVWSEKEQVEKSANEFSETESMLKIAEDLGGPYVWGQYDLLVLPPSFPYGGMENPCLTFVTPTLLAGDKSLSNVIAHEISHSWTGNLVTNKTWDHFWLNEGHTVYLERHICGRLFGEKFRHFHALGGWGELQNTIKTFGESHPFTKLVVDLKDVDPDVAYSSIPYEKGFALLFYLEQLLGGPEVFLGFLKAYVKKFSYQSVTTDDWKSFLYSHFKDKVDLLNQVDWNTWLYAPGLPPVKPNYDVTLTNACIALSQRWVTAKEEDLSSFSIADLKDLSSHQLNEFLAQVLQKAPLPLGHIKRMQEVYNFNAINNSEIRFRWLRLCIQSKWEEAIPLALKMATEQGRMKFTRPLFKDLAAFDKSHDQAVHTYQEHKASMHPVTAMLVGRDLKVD
Put plainly: Inhibition of LTA4H epoxide hydrolase in C57BL/6 mouse neutrophils assessed as suppression of fMLP-induced neutrophil migration co-treated with ((2S,3R)-3-amino-2-hydroxy-4-phenylbutanamido)-4-methylpentanoic acid for 30 mins followed by stimulation with fMLP for 1 hr by chemotaxis assay.

For data set [2], the target named is T2, Leukotriene A-4 hydrolase (LTA4H) aminopeptidase activity (Homo sapiens, UniProt P09960).
T2 sequence (P09960 whole entry): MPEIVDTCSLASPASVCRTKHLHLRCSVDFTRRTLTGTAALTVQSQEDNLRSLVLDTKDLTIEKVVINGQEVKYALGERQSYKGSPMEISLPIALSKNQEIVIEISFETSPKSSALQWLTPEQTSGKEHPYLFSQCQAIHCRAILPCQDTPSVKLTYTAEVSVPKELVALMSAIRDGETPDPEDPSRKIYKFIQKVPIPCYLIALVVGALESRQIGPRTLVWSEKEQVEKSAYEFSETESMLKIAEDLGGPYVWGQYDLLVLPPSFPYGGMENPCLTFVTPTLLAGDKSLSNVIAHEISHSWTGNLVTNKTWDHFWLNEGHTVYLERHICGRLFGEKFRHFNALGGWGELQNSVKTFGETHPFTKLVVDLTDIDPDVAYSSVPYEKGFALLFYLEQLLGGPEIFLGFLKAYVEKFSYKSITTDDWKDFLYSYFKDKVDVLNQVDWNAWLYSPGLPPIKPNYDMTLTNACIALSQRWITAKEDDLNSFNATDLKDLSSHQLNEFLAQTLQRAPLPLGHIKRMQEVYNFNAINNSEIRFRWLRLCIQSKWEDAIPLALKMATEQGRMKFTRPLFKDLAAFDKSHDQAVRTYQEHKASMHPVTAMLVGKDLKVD
The data set is described as follows: Inhibition of recombinant human LTA4H aminopeptidase activity expressed in Escherichia coli BL21 (DE3) pLysS assessed as formation of p-NA from Ala-p-NA at 10 uM preincubated for 10 mins followed by substrate addition measured after 10 mins. Conditions: probe Ala-p-NA.

The species named for the next data set is Mus musculus. As to conditions: C57BL/6, at 25 mg/kg.
Data set [3] deals with T3, Leukotriene A-4 hydrolase (Homo sapiens) (UniProt P09960).
T3 sequence (whole entry): T2 sequence (P09960 whole entry)
As to conditions: at 10 µM.

Each structure is given as a SMILES string. Activity calls are given as the source filed them. The calls are words filed in the database; no cut-off is given here.

Our source for the inhibition values is ChEMBL document CHEMBL4007425, “Drug Repurposing of Histone Deacetylase Inhibitors That Alleviate Neutrophilic Inflammation in Acute Lung Injury and Idiopathic Pulmonary Fibrosis via Inhibiting Leukotriene A4 Hydrolase and Blocking LTB4 Biosynthesis” (J Med Chem, 2017).

By inhibition is commonly meant the relative decrease from the control value, in per cent. As for `Cc1ccc(C(=O)NCCCCCC(=O)Nc2ccccc2N)cc1`, the inhibition result (in data set [1]; in the data set filed under Mus musculus) was “Active” in each case. Moreover, in data set [2], the inhibition at 10 min, 10 µM was above 50%. In data set [3], this compound gave an inhibition above 50%.
